For at least one compound, name, drawing or mass did not settle the structure.
System: H. pylori
Assay: Combined effect of artemisinin and omeprazole on H. pylori growth
Type: cell-based
Conditions: 3 μg/ml omeprazole alone, 3 days
Procedure: In order to explore the possible synergism between artemisinin and a PPI, the growth of bacteria in the presence of artemisinin, omeprazole or both was examined. H. pylori bacteria were grown in the presence of 3-24 μg/ml omeprazole or 0.5-4 μg/ml of artemisinin. Bacterial cultures were incubated in micro-aerophilic conditions. The combined effect of artemisinin and omeprazole on bacterial growth was tested using a spectrophotometer after 3 days.

COc1ccc2[nH]c([S+]([O-])Cc3ncc(C)c(OC)c3C)nc2c1 (stereo not shown) [omeprazole]
Bacterial growth, omeprazole alone: not effective alone
